PubChem BioAssay AID602196 | INSERM, 2012
Shown is an unselected part of about 23,000 reagents. 455 of them (2%) count as active. 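Active includes both protection and sensitisation; some change values fall well beyond the stated -50 to +50 range.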 Not all columns of the deposit are shown. Reagent sequences are not shown. Not stated in the record: the amount of reagent.

Aim: 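Modifiers of cisplatin sensitivity in A549 cells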
System: human A549 lung cancer cells
Knock-down reagent: siRNA pair against human genes
Time to read-out: 48 h transfection before cisplatin; time from cisplatin to read-out not stated
Treatment: cisplatin at a dose killing half of control-siRNA cells; exact dose and duration not given
Read-out: 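Cisplatin cell death as a shift from the 50% death seen with control siRNA; siRNAs toxic or growth-blocking alone scored 0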
Scale: two-siRNA summed score (-2 to +2): higher = both siRNAs protect from cisplatin killing; -2 means both sensitise; mean protection from cisplatin (shift in death): higher = protection from cisplatin killing
Active means: 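Each siRNA scores 0 if harmful alone by LDH or WST-1, otherwise +1 if it reduces and -1 if it increases cisplatin killing; a gene is active when both siRNAs agree (sum +2 or -2)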
Meaning of the calls: active = both siRNAs shift cisplatin killing the same way; inactive = no consistent shift, or siRNA harmful alone

BTN3A1: two-siRNA summed score (-2 to +2) = 0; mean protection from cisplatin (shift in death) (%) = -2.3; activity call = inactive
USP19: two-siRNA summed score (-2 to +2) = 0; mean protection from cisplatin (shift in death) (%) = 5.1; activity call = inactive
DRC10: two-siRNA summed score (-2 to +2) = 0; mean protection from cisplatin (shift in death) (%) = 6.3; activity call = inactive
OR11L1: two-siRNA summed score (-2 to +2) = 1; mean protection from cisplatin (shift in death) (%) = 6.3; activity call = inactive
CIMIP1: two-siRNA summed score (-2 to +2) = 1; mean protection from cisplatin (shift in death) (%) = 0.7; activity call = inactive
ACP7: two-siRNA summed score (-2 to +2) = 1; mean protection from cisplatin (shift in death) (%) = 15.5; activity call = inactive
CA6: two-siRNA summed score (-2 to +2) = 0; mean protection from cisplatin (shift in death) (%) = -1.5; activity call = inactive
TRAPPC13: two-siRNA summed score (-2 to +2) = 0; mean protection from cisplatin (shift in death) (%) = 1.3; activity call = inactive
GLUD1: two-siRNA summed score (-2 to +2) = 0; mean protection from cisplatin (shift in death) (%) = 6.6; activity call = inactive
UBA3: two-siRNA summed score (-2 to +2) = -1; mean protection from cisplatin (shift in death) (%) = -3.5; activity call = inactive
NPDC1: two-siRNA summed score (-2 to +2) = 0; mean protection from cisplatin (shift in death) (%) = 0.9; activity call = inactive
ST8SIA1: two-siRNA summed score (-2 to +2) = 0; mean protection from cisplatin (shift in death) (%) = 0.2; activity call = inactive
GUK1: two-siRNA summed score (-2 to +2) = -1; mean protection from cisplatin (shift in death) (%) = -1.8; activity call = inactive
WNK3: two-siRNA summed score (-2 to +2) = 1; mean protection from cisplatin (shift in death) (%) = 12.3; activity call = inactive
DUSP21: two-siRNA summed score (-2 to +2) = 0; mean protection from cisplatin (shift in death) (%) = 2.5; activity call = inactive
MGC34829: two-siRNA summed score (-2 to +2) = 1; mean protection from cisplatin (shift in death) (%) = 11.2; activity call = inactive
ZDHHC2: two-siRNA summed score (-2 to +2) = 0; mean protection from cisplatin (shift in death) (%) = 9.6; activity call = inactive
MAMSTR: two-siRNA summed score (-2 to +2) = 0; mean protection from cisplatin (shift in death) (%) = -6.8; activity call = inactive
INO80B: two-siRNA summed score (-2 to +2) = 0; mean protection from cisplatin (shift in death) (%) = 12.2; activity call = inactive
NANP: two-siRNA summed score (-2 to +2) = 0; mean protection from cisplatin (shift in death) (%) = 7.8; activity call = inactive
SEMG2: two-siRNA summed score (-2 to +2) = -1; mean protection from cisplatin (shift in death) (%) = -18.7; activity call = inactive
LOC283780: two-siRNA summed score (-2 to +2) = 0; mean protection from cisplatin (shift in death) (%) = 14.1; activity call = inactive
PCDHGA8: two-siRNA summed score (-2 to +2) = 0; mean protection from cisplatin (shift in death) (%) = 5.2; activity call = inactive
LOC388010: two-siRNA summed score (-2 to +2) = 0; mean protection from cisplatin (shift in death) (%) = 9.1; activity call = inactive
LOC389803: two-siRNA summed score (-2 to +2) = 0; mean protection from cisplatin (shift in death) (%) = 17.1; activity call = inactive
MAN2A1: two-siRNA summed score (-2 to +2) = 1; mean protection from cisplatin (shift in death) (%) = 4.3; activity call = inactive
AIPL1: two-siRNA summed score (-2 to +2) = 0; mean protection from cisplatin (shift in death) (%) = 0.4; activity call = inactive
LINC00161: two-siRNA summed score (-2 to +2) = 1; mean protection from cisplatin (shift in death) (%) = 5.2; activity call = inactive
CCL13: two-siRNA summed score (-2 to +2) = 0; mean protection from cisplatin (shift in death) (%) = -11.5; activity call = inactive
TEX13A: two-siRNA summed score (-2 to +2) = 0; mean protection from cisplatin (shift in death) (%) = 0.1; activity call = inactive
XAF1: two-siRNA summed score (-2 to +2) = 0; mean protection from cisplatin (shift in death) (%) = -0.2; activity call = inactive

In a second layout: 4 of the entries above
target gene | two-siRNA summed score (-2 to +2) | mean protection from cisplatin (shift in death) (%) | activity call
ACP7 | 1 | 15.5 | inactive
CA6 | 0 | -1.5 | inactive
TRAPPC13 | 0 | 1.3 | inactive
GLUD1 | 0 | 6.6 | inactive
